Experimental data taken from PubChem BioAssay AID2685 (National Center for Advancing Translational Sciences (NCATS), 2010).
The other results are listed elsewhere or left out. The main result of the screen is listed elsewhere. These columns were measured beside it and carry no call. The list favours compounds with an active or inconclusive main result. The note in brackets gives the kind of curve behind each potency; many fits are weak.

Test: qHTS Assay for Lipid Storage Modulators in Drosophila S3 Cells;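 on cell number change: cells counted by Cell Tracker Red CMTPX staining in the red channel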
Details: BODIPY lipid droplet fluorescence, 18-24 h; for cell number change: measured here: cell count max response, cells fed with added oleic acid
Method in brief: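 Drosophila S3 cells loaded with oleic acid (400 uM, as added) and compounds at several concentrations; lipid droplets imaged by 488-nm laser-scanning cytometry, 500–530 nm intensity and object ratio to cell channel. Percent activity normalized to 20 uM Triacsin C.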

[1] = measured here: cell number channel AC50, cells fed with added oleic acid
[2] = measured here: lipid fluorescence (Fed channel) AC50, cells fed with added oleic acid

| Compound | cell number change [%] | AC50 [1] | AC50 [2] |
| --- | --- | --- | --- |
| COc1ccc(C(=O)COc2ccccc2C(=O)Nc2ccccc2)cc1 | -44 | 0.92 µM [falling, full curve] | – |
| CC(=O)Nc1ccc(/C=C/C(=O)c2ccc3c(c2)OCCO3)cc1 | -28.6 | 1.64 µM [falling, full curve, poor fit] | – |
| Cc1ccc(C(=O)Nc2cccc(S(=O)(=O)N3CCCC3)c2)o1 | -7.39 | – | – |
| Cc1ccc2nc(NCCCO)nc(-c3ccccc3)c2c1 | 15.3 | – | 8.2 µM [rising, partial curve] |
| O=C1C2C3C=CC(CC3)C2C(=O)N1c1cccc(Br)c1 (centres undefined) | 0.263 | – | 3.26 µM [falling, single point] |
| CC1c2cc3c(cc2CCN1S(=O)(=O)c1ccccc1)OCCCO3 (centres undefined) | -8.66 | – | – |
| CC[n+]1c(/C=C(\C)Nc2ccccc2)sc2ccccc21 | 58.7 | 29.1 µM [rising, single point] | 2.91 µM [rising, full curve] |
| CCCn1c(=O)c(C(=O)Nc2cccc(C)n2)c(O)c2ccccc21 | -5.87 | – | – |
| CCN1CCN(Cc2ccc(NC(=O)c3cc(NC(=O)C(=O)c4c[nH]c5ccccc45)cc(OC)c3)cc2C(F)(F)F)CC1 | -43.2 | 29.1 µM [falling, single point] | 29.1 µM [falling, single point] |
| Cc1nc(Nc2ccc(F)cc2)[nH]c(=O)c1CCC(C)C | -33.5 | 3.66 µM [falling, full curve] | 7.31 µM [falling, partial curve] |
| COC(=O)C1=C(C(=O)OC)[C@@H]2N(Cc3ccccc3)c3ccccc3[C@@]23C[C@@H](C(=O)OC)N(C(C)=O)C3=N1 | -35.1 | 6.51 µM [falling, partial curve, poor fit] | 6.51 µM [falling, full curve, poor fit] |
| COc1ccc(C(=O)OCC(=O)NC(C)CCc2ccccc2)cc1OC (centres undefined) | – | 0.58 µM [rising, single point] | – |
| O=C1NN(c2ccccc2)C(=O)/C1=C/c1cccs1 | -47.8 | 18.4 µM [falling, single point] | 0.058 µM [falling, full curve] |
| CCN(CC)c1ccc(NC(=O)c2ccc3c(c2)c(C)c(C)n3C)cc1 | -11.9 | – | – |
| N#Cc1c(-c2cccc(Br)c2)cc(-c2ccco2)[nH]c1=O | 8.36 | 2.31 µM [rising, partial curve, poor fit] | – |
| CC(C)c1ccc(NC(=O)[C@@H](NC(=O)N2CC(=O)Nc3ccccc32)C(C)C)cc1 | -15.3 | – | – |
| O=C(NCC(c1ccco1)N1CCN(c2ccc(F)cc2)CC1)c1ccc2c(c1)OCO2 (centres undefined) | -6.01 | 0.00461 µM [rising, full curve, poor fit] | 0.00411 µM [rising, full curve, poor fit] |
| COc1ccc(CC2(C)OC(c3ccc(C)cc3)=NN2C(C)=O)cc1 (centres undefined) | 30.9 | 10.3 µM [rising, single point] | – |
| O=C(CCC1CCN(C(=O)c2ccco2)CC1)NCc1ccc(F)cc1 | 15.3 | 4.11 µM [rising, single point] | 29.1 µM [rising, single point] |
| NC(=O)c1ccccc1OCC(=O)N1CCCC1c1ccc2c(c1)OCCCO2 (centres undefined) | -12.5 | – | – |

| Compound | cell number change [%] | AC50 [1] | AC50 [2] |
| --- | --- | --- | --- |
| CC(Sc1nc2ncc(Cl)cc2[nH]1)C(=O)NC1(C#N)CCCCC1 (centres undefined) | 3.31 | – | – |
| Cc1cccc(NC(=O)CSc2nnc(-c3ccc(S(=O)(=O)N4CCOCC4)cc3)n2C)c1 | -3.42 | – | – |
| CC(C(=O)N1CCc2ccccc21)N1CCN(S(=O)(=O)c2cccc(C(F)(F)F)c2)CC1 (centres undefined) | -4.96 | – | 0.00461 µM [falling, full curve, poor fit] |
| Cc1c(Cl)cccc1Nc1nc(N)nc(CSc2ncccn2)n1 | – | 0.0326 µM [rising, full curve, poor fit] | 0.58 µM [rising, full curve, poor fit] |
| CC(=O)Nc1ccc(-c2csc(NC(=O)Cc3cccc(F)c3)n2)cc1 | 3.04 | – | 6.51 µM [rising, single point] |
| CCOC(=O)Cc1csc(NC(=O)Cc2cccs2)n1 | -1.75 | – | 0.82 µM [falling, full curve, poor fit] |
| COc1ccc(C)cc1S(=O)(=O)N1CCN(c2cccc(C(F)(F)F)c2)CC1 | 199 | 20.6 µM [rising, single point] | 23.1 µM [rising, single point] |
| CCOC(=O)C1=C(C)OC(N)=C(C#N)C1C1CCCCC1 (centres undefined) | -47.4 | 2.06 µM [falling, partial curve] | 23.1 µM [falling, single point] |
| O=C(NCC1CCCO1)/C(=C\c1ccco1)NC(=O)c1ccc(Cl)cc1 (centres undefined) | 0.596 | – | 0.731 µM [falling, single point] |
| Cc1nc2ccccc2nc(C)c1=NOCc1ccc(C#N)cc1 | 19.9 | – | 25.9 µM [rising, partial curve] |
| Cc1cc(/C=C2/SC(=O)N(CC(=O)N3CCCC3)C2=O)c(C)n1C | -7.69 | – | – |
| COCCCN1C(=O)C(O)=C(C(C)=O)C1c1cccc(F)c1 (centres undefined) | -4.9 | – | 0.461 µM [falling, full curve, poor fit] |
| COc1cc(/C=N/NC(=O)c2ccccn2)ccc1OC(=O)c1cccs1 | 2.27 | – | 23.1 µM [falling, single point] |
| O=C(CN1C(=O)c2ccccc2C1=O)OCC(=O)c1ccc(F)cc1 | -25 | 6.51 µM [rising, partial curve] | – |
| O=C(CSc1n[nH]c(-c2cccnc2)n1)Nc1ccc([N+](=O)[O-])cc1 | 5.56 | – | 29.1 µM [falling, single point] |
| O=C(c1cc(-c2ccccc2Cl)nc2ccccc12)N1CCC1 | 33 | 29.1 µM [rising, single point] | – |
| O=C(CCC(=O)Nc1ccccc1Cl)N/N=C/c1c[nH]c2ccccc12 | -3.46 | – | – |
| COc1ccccc1Oc1ccccc1C(=O)O | -40.6 | 2.91 µM [falling, full curve] | 16.4 µM [falling, partial curve] |
| COC(=O)[C@@]12CCCCN1[C@H](c1ccc(-c3cccc(Cl)c3)c(OC)c1)[C@H]1C(=O)N(C)C(=O)[C@H]12 | 21.9 | – | 0.517 µM [rising, full curve] |
| COc1cccc(N2CCN(CC(=O)Nc3ccnn3C3CCCC3)CC2)c1 | – | – | 2.31 µM [falling, partial curve, poor fit] |

Of the compounds above, 9 have four or more nitrogen atoms:

| Compound | cell number change [%] | AC50 [1] | AC50 [2] |
| --- | --- | --- | --- |
| CCN1CCN(Cc2ccc(NC(=O)c3cc(NC(=O)C(=O)c4c[nH]c5ccccc45)cc(OC)c3)cc2C(F)(F)F)CC1 | -43.2 | 29.1 µM [falling, single point] | 29.1 µM [falling, single point] |
| CC(C)c1ccc(NC(=O)[C@@H](NC(=O)N2CC(=O)Nc3ccccc32)C(C)C)cc1 | -15.3 | – | – |
| CC(Sc1nc2ncc(Cl)cc2[nH]1)C(=O)NC1(C#N)CCCCC1 (centres undefined) | 3.31 | – | – |
| Cc1cccc(NC(=O)CSc2nnc(-c3ccc(S(=O)(=O)N4CCOCC4)cc3)n2C)c1 | -3.42 | – | – |
| Cc1c(Cl)cccc1Nc1nc(N)nc(CSc2ncccn2)n1 | – | 0.0326 µM [rising, full curve, poor fit] | 0.58 µM [rising, full curve, poor fit] |
| Cc1nc2ccccc2nc(C)c1=NOCc1ccc(C#N)cc1 | 19.9 | – | 25.9 µM [rising, partial curve] |
| O=C(CSc1n[nH]c(-c2cccnc2)n1)Nc1ccc([N+](=O)[O-])cc1 | 5.56 | – | 29.1 µM [falling, single point] |
| O=C(CCC(=O)Nc1ccccc1Cl)N/N=C/c1c[nH]c2ccccc12 | -3.46 | – | – |
| COc1cccc(N2CCN(CC(=O)Nc3ccnn3C3CCCC3)CC2)c1 | – | – | 2.31 µM [falling, partial curve, poor fit] |

(list continues)

| Compound | cell number change [%] | AC50 [1] | AC50 [2] |
| --- | --- | --- | --- |
| O=C(OCC(=O)N1CCCCCC1)c1ccc(S(=O)(=O)N2CCOCC2)cc1 | -2.6 | – | 0.00411 µM [rising, full curve, poor fit] |
| N#CNC(=Nc1cccc(Cl)c1)Oc1ccccc1 | -14.5 | 0.00411 µM [falling, full curve, poor fit] | 0.00461 µM [falling, full curve, poor fit] |
| COc1ccc(CCn2c(=N)c(C(=O)NCCN3CCOCC3)cc3c(=O)n4cccc(C)c4nc32)cc1OC | 18.6 | – | 6.51 µM [falling, single point] |
| c1ccc(C2Nc3cccc4cccc(c34)N2)cc1 | -11.1 | – | 11.6 µM [falling, partial curve, poor fit] |
| COc1ccc(CCNC(=O)Cn2cc(C(F)(F)F)cc(Cl)c2=O)cc1OC | -18.2 | – | 7.31 µM [falling, full curve, poor fit] |
| Cc1ccc(CNC(=O)C(Cc2ccccc2)n2cccc2)cc1 (centres undefined) | 4.35 | – | 6.51 µM [falling, single point] |
| CC(C)NC(=S)N1CCN(S(C)(=O)=O)CC1 | 37.7 | 29.1 µM [rising, single point] | – |
| COc1ccc(NC2=C(c3ccc(OC)cc3)C(=O)c3ccccc32)cc1 | -0.141 | – | 0.731 µM [rising, full curve, poor fit] |
| O=C(Nc1ccnn1C1CCN(Cc2ccc(OC(F)F)cc2)CC1)C1CCCC1 | 17 | – | – |
| Cc1ccc(S(=O)(=O)N2CCN(C(=O)CN3C(=O)c4ccc([N+](=O)[O-])cc4C3=O)CC2)c(C)c1 | -12.9 | – | 2.91 µM [falling, full curve, poor fit] |
| Fc1cccc(Cl)c1CSc1nnnn1-c1ccc2c(c1)OCO2 | -20 | – | – |
| COCCn1cnc2c(c1=O)c1nc3ccccc3nc1n2/N=C/c1cccc(OC)c1 | -16.4 | – | 23.1 µM [falling, partial curve] |
| Nc1nc(C2C(=O)CCCC2=O)cs1 | – | – | 1.03 µM [falling, full curve] |
| CCCn1c(N)c(C(=O)COC(=O)CNC(=O)c2ccc(C)c(C)c2)c(=O)n(C)c1=O | 13.3 | – | 5.17 µM [rising, partial curve] |
| CC(=O)N(C1=C(Cl)C(=O)c2ccccc2C1=O)C1CCCCC1 | -29.7 | – | – |
| CCc1cc(=O)oc2cc(C)cc(OCC(=O)NCCN3CCOCC3)c12 | -11 | – | – |
| CS(=O)(=O)N1N=C(c2ccccc2)CC1c1ccc2nccnc2c1 (centres undefined) | 40.2 | 29.1 µM [rising, single point] | 7.31 µM [rising, partial curve] |
| O=C(NCC1CCCO1)c1ccc(NC(=O)c2cccc(Br)c2)cc1 (centres undefined) | -9.12 | – | – |
| CCn1c(COc2ccc(C)cc2)nnc1SCC(=O)NCc1ccco1 | -45 | 3.66 µM [falling, full curve] | 3.26 µM [falling, partial curve] |
| COc1cc(C(=O)NC2CCN(CC(=O)NC3CCCCC3C)CC2)cc(OC)c1OC (centres undefined) | 11.8 | – | – |

Some of the entries so far, field by field:
N#CNC(=Nc1cccc(Cl)c1)Oc1ccccc1
  cell number change [%]: -14.5
  AC50 [1]: 0.00411 µM [falling, full curve, poor fit]
  AC50 [2]: 0.00461 µM [falling, full curve, poor fit]
COc1ccc(CCn2c(=N)c(C(=O)NCCN3CCOCC3)cc3c(=O)n4cccc(C)c4nc32)cc1OC
  cell number change [%]: 18.6
  AC50 [2]: 6.51 µM [falling, single point]
